Test results published in US20040126325A1, “Medicinal aerosol solution formulation products with improved chemical stability” (priority 2002, published 2004).
For at least one compound, name, drawing or mass did not settle the structure.

Assay: Stability of Budesonide solution formulations: determination of degradation products (related substances)
Format: physicochemical
Method: Two cans of anodized aluminum prepared as per example 2 were submitted to the determination of degradation products of the active ingredient.
It was noticed in this way that after a lag time of 6 months at 40° C. the degradation rate increases with the same pattern seen in the first example. […] An explanation of the process is that peroxides may leach into the solution after a while, thus starting a radicalic degradation of Budesonide.

[1] = 6 months 30° C./60% RH inverted, anodized aluminum cut edge can, ethanol extracted valves
[2] = 6 months 40° C./75% RH inverted, anodized aluminum cut edge can, ethanol extracted valves
[3] = 6 months 40° C./75% RH inverted, epoxy-phenol lacquered rolled neck can
[4] = 6 months 40° C./75% RH upright, anodized aluminum cut edge can, ethanol extracted valves
[5] = 12 months 25° C./60% RH inverted, epoxy-phenol lacquered rolled neck can
[6] = START, anodized aluminum cut edge can, ethanol extracted valves
[7] = START, epoxy-phenol lacquered rolled neck can

In the case of `CCCC1O[C@@H]2C[C@H]3[C@@H]4CCC5=CC(=O)C=C[C@]5(C)[C@H]4[C@@H](O)C[C@]3(C)[C@]2(C(=O)CO)O1` (stereo partly drawn) [Budesonide], the “Related substances: Bud-21-ald. (budesonide-21-aldehyde)” value (1 month 40° C. 75% RH inverted, anodised aluminium rolled over can) is reported as 0.23%, the “Related substances: Bud-21-ald. (budesonide-21-aldehyde)” value (1 month 50° C. inverted, anodised aluminium cut edge can) is reported as 0.58% and the “Related substances: Bud-21-ald. (budesonide-21-aldehyde)” value (1 month 50° C. inverted, anodised aluminium rolled in can) is reported as 0.50%. The “Related substances: Bud-21-ald. (budesonide-21-aldehyde)” value (3 months 50° C. inverted, anodised aluminium cut edge can) was 1.76%, the “Related substances: Bud-21-ald. (budesonide-21-aldehyde)” value (3 months 50° C. inverted, anodised aluminium rolled in can) was 1.45% and the “Related substances (%): TOTAL” value [1] was 1.50%. The “Related substances (%): bud-17-ac. (budesonide-17-acid)” value [1] was 0.34%, the “Related substances (%): bud-21-ald. (budesonide-21-aldehyde)” value [1] was 0.98% and the “Related substances (%): desonide” value [1] was less than 0.06%. For the same compound, the “Related substances (%): unknowns” value [1] was 0.18%, the “Related substances (%): TOTAL” value [2] was 4.58% and the “Related substances (%): bud-17-ac. (budesonide-17-acid)” value [2] was 0.99%. The “Related substances (%): bud-21-ald. (budesonide-21-aldehyde)” value [2] was 2.96%, the “Related substances (%): desonide” value [2] was 0.14% and the “Related substances (%): unknowns” value [2] was 0.49%. For the same compound, the “Related substances (%): TOTAL” value [3] was 2.05%, the “Related substances (%): bud-21-ald. (budesonide-21-aldehyde)” value [3] was 1.22% and the “Related substances (%): desonide” value [3] was 0.23%. For the same compound, the “Related substances (%): unknowns” value [3] was 0.60%, the “Related substances (%): TOTAL” value [4] was 2.08% and the “Related substances (%): bud-17-ac. (budesonide-17-acid)” value [4] was 0.35%. For the same compound, the “Related substances (%): bud-21-ald. (budesonide-21-aldehyde)” value [4] was 1.19%, the “Related substances (%): desonide” value [4] was 0.17% and the “Related substances (%): unknowns” value [4] was 0.37%. The “Related substances (%): TOTAL” value [5] was 1.38%, the “Related substances (%): bud-21-ald. (budesonide-21-aldehyde)” value [5] was 0.85% and the “Related substances (%): desonide” value [5] was 0.16%. For the same compound, the “Related substances (%): unknowns” value [5] was 0.37%, the “Related substances (%): TOTAL” value [6] was 0.58% and the “Related substances (%): bud-21-ald. (budesonide-21-aldehyde)” value [6] was 0.16%. For the same compound, the “Related substances (%): desonide” value [6] was 0.15%, the “Related substances (%): unknowns” value [6] was 0.27% and the “Related substances (%): TOTAL” value [7] was 0.67%. For the same compound, the “Related substances (%): bud-21-ald. (budesonide-21-aldehyde)” value [7] was 0.24%, the “Related substances (%): desonide” value [7] was 0.14% and the “Related substances (%): unknowns” value [7] was 0.29%. For the same compound, the “Related substances: Bud-21-ald. (budesonide-21-aldehyde)” value (Start, anodised aluminium cut edge can) was less than 0.02%, the “Related substances: Bud-21-ald. (budesonide-21-aldehyde)” value (Start, anodised aluminium rolled in can) was less than 0.02% and the “Related substances: Bud-21-ald. (budesonide-21-aldehyde)” value (Start, anodised aluminium rolled over can) was 0.08%.
